Results deposited as PubChem BioAssay AID1259425 (University of Nebraska Medical Center, 2018).

Screen: 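Seek colon cancer weak points whose silencing resembles KSR1 loss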 (primary screen)
Cells: HCT116 human colon cancer cells
Reagent: siRNA pool against human genes, 50 nM siRNA
Detection: 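mRNA of six signature genes measured together by branched-DNA assay after 50 nM siRNA pool, blank removed, divided by geometric mean of two housekeeping genes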
Reading the numbers: BNIP3L mRNA: higher = more BNIP3L transcript after knockdown; NDRG1 mRNA: higher = more NDRG1 transcript after knockdown; BNIP3 mRNA: higher = more BNIP3 transcript after knockdown; ALDOC mRNA: higher = more ALDOC transcript after knockdown; ACSL5 mRNA: higher = more ACSL5 transcript after knockdown
Here is an unselected part of about 14,000 reagents. Not stated in the record: the time to read-out.

| Gene | BNIP3L mRNA, set 1 | NDRG1 mRNA, set 1 | BNIP3 mRNA, set 1 | ALDOC mRNA, set 1 | ACSL5 mRNA, set 1 |
| --- | --- | --- | --- | --- | --- |
| LY6G5C (lymphocyte antigen 6 family member G5C) | 0.189 | 0.135 | 0.426 | 0.043 | 0.225 |
| OR12D2 (olfactory receptor family 12 subfamily D member 2) | 0.181 | 0.522 | 0.478 | 0.0611 | 0.196 |
| NTS (neurotensin) | 0.176 | 0.0718 | 0.545 | 0.0628 | 0.18 |
| LEPROT (leptin receptor overlapping transcript) | 0.148 | 0.127 | 0.257 | 0.0961 | 0.0931 |
| COMMD3 (COMM domain containing 3) | 0.098 | 0.191 | 0.286 | 0.0201 | 0.162 |
| ZCRB1 (zinc finger CCHC-type and RNA binding motif containing 1) | 0.13 | 0.0973 | 0.251 | 0.06 | 0.337 |
| RSPH14 (radial spoke head 14 homolog) | 0.0618 | 0.108 | 0.262 | 0.0271 | 0.18 |
| DSC2 (desmocollin 2) | 0.103 | 0.129 | 0.419 | 0.00977 | 0.175 |
| PRKAG3 (protein kinase AMP-activated non-catalytic subunit gamma 3) | 0.216 | 0.625 | 0.348 | 0.0199 | 0.508 |
| LHPP | 0.135 | 0.541 | 0.278 | 0.0213 | 0.157 |
| NTRK1 (neurotrophic receptor tyrosine kinase 1) | 0.0896 | 0.17 | 0.239 | 0.00772 | 0.309 |
| PHF10 (PHD finger protein 10) | 0.12 | 0.44 | 0.388 | 0.0327 | 0.174 |
| CCDC47 (coiled-coil domain containing 47) | 0.166 | 0.417 | 0.325 | 0.0475 | 0.247 |
| RRM1 (ribonucleotide reductase catalytic subunit M1) | 0.11 | 0.282 | 0.362 | 0.0309 | 0.147 |
| TAAR9 (trace amine associated receptor 9) | 0.14 | 0.092 | 0.171 | 0.0271 | 0.263 |
| INPP1 (inositol polyphosphate-1-phosphatase) | 0.0834 | 0.134 | 0.201 | 0.0146 | 0.187 |
| FANCF (FA complementation group F) | 0.201 | 0.756 | 0.582 | 0.0494 | 0.393 |
| MAP3K6 (mitogen-activated protein kinase kinase kinase 6) | 0.116 | 0.138 | 0.284 | 0.00943 | 0.309 |
| NAA38 (N-alpha-acetyltransferase 38, NatC auxiliary subunit) | 0.138 | 0.109 | 0.303 | 0.0527 | 0.312 |
| SLC4A8 | 0.183 | 0.199 | 0.329 | 0.0522 | 0.13 |

Part of the list above, set out differently.
Gene | BNIP3L mRNA, set 1 | NDRG1 mRNA, set 1 | BNIP3 mRNA, set 1 | ALDOC mRNA, set 1 | ACSL5 mRNA, set 1
TAAR9 (trace amine associated receptor 9) | 0.14 | 0.092 | 0.171 | 0.0271 | 0.263
INPP1 (inositol polyphosphate-1-phosphatase) | 0.0834 | 0.134 | 0.201 | 0.0146 | 0.187
